Earlier results as cited in US8088935B2, “Compounds and methods for the treatment of asthma” (Ironwood Pharmaceuticals, Inc., priority 2003, dated 2012).
Some results were stated once for a whole list of compounds, not compound by compound.

Target: human iNOS (Homo sapiens, UniProt P35228)
Conditions: definition of chemical means for inhibiting iNOS; method of Moore et al.; read-out: IC50 against human iNOS

For `O=C(NCCc1ccc2c(c1)OCO2)C(CO)Nc1ccnc(-n2ccnc2)n1` (stereo not shown) [Example B24], the IC50 is listed as less than 25 µM.
